Measured values reported in patent publication US20080213860.
Substitutions are numbered along the chain they refer to. For at least one entry, the source does not settle the construct or the ends of the probe. For some of these results: A weaker result is weaker than the reference pair of the same experiment. Tags and fusion partners may be left off the protein sequences shown.

Tests used:
Assay in all cases: enzyme reaction in vitro
[1] = tested on: T1, BsmI R132D (Bacillus stearothermophilus NUB36); details: ds-DNA cleavage; protein in an extract; only the site is given
T1 sequence: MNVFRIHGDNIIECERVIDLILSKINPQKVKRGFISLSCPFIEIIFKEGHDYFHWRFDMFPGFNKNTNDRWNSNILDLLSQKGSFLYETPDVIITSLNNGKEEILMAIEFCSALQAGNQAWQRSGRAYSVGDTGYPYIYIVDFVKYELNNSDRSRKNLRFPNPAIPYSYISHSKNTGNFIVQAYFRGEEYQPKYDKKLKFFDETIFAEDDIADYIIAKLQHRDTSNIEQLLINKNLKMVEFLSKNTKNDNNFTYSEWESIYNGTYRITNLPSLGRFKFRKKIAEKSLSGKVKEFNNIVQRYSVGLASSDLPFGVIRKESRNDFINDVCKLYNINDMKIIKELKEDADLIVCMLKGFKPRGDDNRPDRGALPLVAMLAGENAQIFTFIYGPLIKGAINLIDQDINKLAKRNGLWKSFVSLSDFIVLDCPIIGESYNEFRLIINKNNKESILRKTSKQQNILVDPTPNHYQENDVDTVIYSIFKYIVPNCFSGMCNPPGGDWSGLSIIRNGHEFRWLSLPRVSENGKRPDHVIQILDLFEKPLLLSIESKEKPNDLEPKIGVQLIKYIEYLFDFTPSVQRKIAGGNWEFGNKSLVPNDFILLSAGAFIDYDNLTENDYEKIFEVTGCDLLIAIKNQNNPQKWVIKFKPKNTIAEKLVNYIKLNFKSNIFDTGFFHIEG

[2] = tested on: T2, BsmI R56D (Bacillus stearothermophilus NUB36); details: ds-DNA cleavage; protein in an extract; only the site is given
T2 sequence: T1 sequence with R56D, D132R

[3] = tested on: T3, BsmI R126D (Bacillus stearothermophilus NUB36); details: low nicking activity, low ds-DNA cleavage; protein in an extract; only the site is given
T3 sequence: T1 sequence with R126D, D132R

[4] = tested on: T4, BsmI R275D (Bacillus stearothermophilus NUB36); details: ds-DNA cleavage; protein in an extract; only the site is given
T4 sequence: T1 sequence with D132R, R275D

GCATTC [pBR322 supercoiled plasmid (one BsmI site)]
activity on this sequence [1]: active
activity on this sequence [2]: active
activity on this sequence [3]: less active
activity on this sequence [4]: active
